According to patent publication US20210017287A1 (published 2021):
Changes are numbered by the printed parent chain. No constants are given. Whether binding was seen depends on the method and setting. Some entries that bind do so weakly or less than the wild type. For some assays here: Where a sequence is shown, tags or fusion partners need not be part of it.

How the values were obtained:
[1] = biological target: T1, TNFRSF25-Fc fusion protein (UniProt Q93038 25-199, limits assumed, biotinylated in the capture ELISA (site not stated)); test: ELISA on TNFRSF25-Fc (FIG. 10; data of the scFv clones)
T1 construct: also called TNFRSF25-Fc protein; biotinylated antigen protein; not shown: Fc part
T1 sequence (looked up): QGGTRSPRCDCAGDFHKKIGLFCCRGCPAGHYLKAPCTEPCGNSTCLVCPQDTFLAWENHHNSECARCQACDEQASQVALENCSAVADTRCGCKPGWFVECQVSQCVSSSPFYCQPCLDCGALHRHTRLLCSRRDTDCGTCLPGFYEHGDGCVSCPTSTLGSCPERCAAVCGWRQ

[2] = biological target: T1, TNFRSF25-Fc fusion protein; test: ELISA of scFv clones (FIG. 10)
[3] = biological target: T1, TNFRSF25-Fc fusion protein; test: ELISA of combinatorial scFv clones (FIG. 10)
[4] = biological target: T1, TNFRSF25-Fc fusion protein; test: ELISA on TNFRSF25-Fc (data of the scFv clones)
[5] = biological target: T1, TNFRSF25-Fc fusion protein; test: ELISA on TNFRSF25-Fc (results of Example 3 told in the description)
[6] = biological target: T1, TNFRSF25-Fc fusion protein; test: capture ELISA of scFv
[7] = biological target: T2, human TNFRSF25 expressed on p815 cells (human) (UniProt Q93038); test: flow cytometry competition against 4C12-AF647 on p815-hDR3 cells (FIG. 13B)
T2 sequence: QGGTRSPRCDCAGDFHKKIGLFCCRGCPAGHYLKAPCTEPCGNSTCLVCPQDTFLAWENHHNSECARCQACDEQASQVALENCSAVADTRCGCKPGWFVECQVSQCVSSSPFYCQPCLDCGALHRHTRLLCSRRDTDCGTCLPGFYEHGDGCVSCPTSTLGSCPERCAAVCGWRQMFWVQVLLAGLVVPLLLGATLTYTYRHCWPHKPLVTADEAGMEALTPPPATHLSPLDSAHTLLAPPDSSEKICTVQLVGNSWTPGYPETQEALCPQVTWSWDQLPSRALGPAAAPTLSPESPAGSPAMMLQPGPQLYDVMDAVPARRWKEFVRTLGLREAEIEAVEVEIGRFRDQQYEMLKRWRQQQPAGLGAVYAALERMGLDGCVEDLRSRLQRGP

[8] = biological target: T2, human TNFRSF25 expressed on p815 cells (human); test: flow cytometry competition against hTL1A-Ig-AF647 on p815-hDR3 cells (FIG. 13A)
[9] = biological target: T2, human TNFRSF25 expressed on p815 cells (human); test: flow cytometry competition on p815-hDR3 cells

Measured: binding

B1: 1F10 (scFv, V domains shown)
VH: EVQLVESGGGLSQPGNSLQLSCEASGFTFSNHDLNWVRQAPGKGLEWVAYISSASGLISYADAVRGRFTISRDNAKNSLFLQMNNLKSEDTAMYYCARDPAYTGLYALDFWGQGTQVTVSS
VL: QPVLTQSPSASASLSGSVKLTCTLSSELSNFTIVWYQQRPDKAPKYVMYLKSDGSHSKGDGIPDRFSGSSSGAHRYLSISNVQSEDDATYFCGAGYTLASQYGWVFGSGTKVTVL
notes: scFv; Frameworks and unchanged CDRs are those of the parental clone
binds: [1] | [2] | [3]

B2: 5A6 (scFv, V domains shown)
VH: B1 VH with A101P
VL: B1 VL with S100N
notes: as for B1
binds: [1] | [2] | [3]

B3: 9A5 (scFv, V domains shown)
VH: B1 VH
VL: B1 VL with N30G, S100N
notes: as for B1
binds: [1] | [2] | [3]

B4: 9G2 (scFv, V domains shown)
VH: B1 VH
VL: B1 VL with N30W, F31Y, S100G
notes: as for B1
binds: [1] | [4] | [2] | [5]

B5: 42G2 (scFv, V domains shown)
VH: B1 VH with A101P, T103S
VL: B1 VL with N30W, F31Y, S100G
notes: scFv
binds: [1] | [4] | [2] | [5] | [6]

B6: W3072-z4C12-m3, IgG1 format (M3-uIgG1L) (antibody, V domains shown)
VH: B1 VH
VL: B1 VL with N30G, S100N
binds: [7] | [8]

B7: W3072-z4C12-m4, IgG1 format (M4-uIgG1L) (antibody, V domains shown)
VH: B1 VH
VL: B1 VL with N30W, F31Y, S100G
binds: [9] | [7] | [8]

B8: W3072-z4C12-m5, IgG1 format (M5-uIgG1L) (antibody, V domains shown)
VH: B1 VH with A101P, T103S
VL: B1 VL with N30W, F31Y, S100G
binds: [9] | [7] | [8]
